The target of assay [1] is T1, Orai-CFP (ectopically expressed dOrai-CFP+ transgene) (Drosophila) (UniProt Q9U6B8).
T1 sequence: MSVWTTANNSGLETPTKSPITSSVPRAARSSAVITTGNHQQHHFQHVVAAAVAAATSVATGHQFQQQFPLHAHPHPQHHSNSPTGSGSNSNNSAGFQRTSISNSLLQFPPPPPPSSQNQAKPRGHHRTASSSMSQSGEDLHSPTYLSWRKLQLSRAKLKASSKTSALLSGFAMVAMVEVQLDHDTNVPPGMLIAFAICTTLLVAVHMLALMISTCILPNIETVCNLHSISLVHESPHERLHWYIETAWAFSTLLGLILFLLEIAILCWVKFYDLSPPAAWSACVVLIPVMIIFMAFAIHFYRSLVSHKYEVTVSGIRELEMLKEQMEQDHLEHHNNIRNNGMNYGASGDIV
In words: co-IP; anti-GFP antibody on Dynabeads, 18-20 h at 4°C; lysate in PBS pH 7.4 with 1% NP-40 and 5 mM EDTA; larval brains with or without thapsigargin (10 µM in Ca2+-free HBM, 10 min); for Orai-CFP with wild-type or mutant IP3R; western blot.

Assay [2] deals with T2, STIM-YFP (Drosophila) (UniProt P83094).
T2 sequence: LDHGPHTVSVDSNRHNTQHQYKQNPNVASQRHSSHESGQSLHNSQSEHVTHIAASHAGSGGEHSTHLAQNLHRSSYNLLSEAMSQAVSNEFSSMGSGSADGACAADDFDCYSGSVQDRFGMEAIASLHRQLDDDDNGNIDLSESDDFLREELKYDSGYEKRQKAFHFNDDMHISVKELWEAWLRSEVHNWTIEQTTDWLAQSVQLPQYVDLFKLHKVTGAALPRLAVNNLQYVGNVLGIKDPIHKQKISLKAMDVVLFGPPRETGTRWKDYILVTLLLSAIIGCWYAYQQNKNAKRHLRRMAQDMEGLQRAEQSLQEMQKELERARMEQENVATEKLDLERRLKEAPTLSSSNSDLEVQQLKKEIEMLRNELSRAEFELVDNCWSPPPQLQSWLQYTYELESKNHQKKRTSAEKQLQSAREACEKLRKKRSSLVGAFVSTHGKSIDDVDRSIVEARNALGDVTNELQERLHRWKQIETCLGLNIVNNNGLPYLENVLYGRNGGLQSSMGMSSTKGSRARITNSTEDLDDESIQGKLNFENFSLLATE
The assay is described as above.

Among the data in paper PMC5087660 are binding values, retold here.

These are yes or no findings as the source states them, for the method shown. In cells and extracts the contact can be indirect. Some results given as binding are weak or reduced against the parent protein; the word gives no strength. Tags and fused reporters may be left off the sequences shown.

B1: STIM (endogenous, Drosophila) (protein, UniProt P83094 24-570)
chain: T2 sequence
With B1, in assay [1], the binding entry is “binds”.

B2: Orai (endogenous, Drosophila) (protein, UniProt Q9U6B8 1-351)
chain: T1 sequence
B2: the binding result in assay [2] is reported as “binds”.
